Test results from PMC11561306.

Sequences of proteins named here, by UniProt entry; tags and fusion partners are left off. A change or cut given only in a name is not applied to a line headed by its entry.
UniProt P09958: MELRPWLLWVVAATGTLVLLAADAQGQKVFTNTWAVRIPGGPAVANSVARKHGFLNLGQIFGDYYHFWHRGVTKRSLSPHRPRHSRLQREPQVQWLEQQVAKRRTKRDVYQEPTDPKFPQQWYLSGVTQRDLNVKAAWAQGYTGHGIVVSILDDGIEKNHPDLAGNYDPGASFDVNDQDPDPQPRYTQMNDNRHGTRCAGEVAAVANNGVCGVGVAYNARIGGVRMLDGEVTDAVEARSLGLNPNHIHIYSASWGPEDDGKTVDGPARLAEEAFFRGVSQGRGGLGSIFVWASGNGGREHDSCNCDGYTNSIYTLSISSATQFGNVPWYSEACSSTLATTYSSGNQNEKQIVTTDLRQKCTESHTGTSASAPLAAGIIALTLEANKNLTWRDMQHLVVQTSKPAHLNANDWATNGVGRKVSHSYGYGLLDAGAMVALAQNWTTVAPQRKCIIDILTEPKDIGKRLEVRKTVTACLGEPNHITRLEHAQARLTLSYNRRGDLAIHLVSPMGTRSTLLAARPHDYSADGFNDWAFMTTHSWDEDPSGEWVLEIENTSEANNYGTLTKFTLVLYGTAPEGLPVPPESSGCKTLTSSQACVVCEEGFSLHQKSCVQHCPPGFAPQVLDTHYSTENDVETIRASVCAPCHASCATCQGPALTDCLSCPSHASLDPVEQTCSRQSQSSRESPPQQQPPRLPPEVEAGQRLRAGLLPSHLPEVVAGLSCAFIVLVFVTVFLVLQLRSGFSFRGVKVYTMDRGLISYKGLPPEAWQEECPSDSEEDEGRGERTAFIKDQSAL

Experiments:
[1] = biological target: T1, VN173-Flag-SPINK13 fusion protein (BiFC) (human) (UniProt Q1W4C9); assay: split reporter; BiFC: pBiFC-VN173-Flag-SPINK13 and pBiFC-VC155-HA-Furin cotransfected into MHCC97-H cells; laser confocal fluorescence microscopy 48 h after transfection; empty-vector combinations as controls
T1 sequence: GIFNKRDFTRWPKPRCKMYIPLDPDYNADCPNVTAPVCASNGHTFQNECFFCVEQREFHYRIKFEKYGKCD

[2] = biological target: T2, Flag-SPINK13 (Kazal-type serine protease inhibitor 13, signal peptide removed) (human) (UniProt Q1W4C9); assay: co-IP; MHCC97-H cells cotransfected with pcDNA3.1-Flag-SPINK13 and pcDNA3.1-HA-Furin; lysate (2 mg/ml) incubated with anti-Flag antibody-conjugated magnetic beads 2 h at room temperature; Western blot with Flag and HA antibodies
T2 sequence: T1 sequence

binding [1]	binding [2]	Substance
binds	–	VC155-HA-Furin fusion protein (BiFC) (from UniProt P09958) (enzyme)
–	binds	HA-Furin (from UniProt P09958) (enzyme)

Results are given in words; binding and its absence hold for the method and conditions named. In cells and extracts the contact can be indirect. Binding can be weak; no strength is given. Sequences can lack the tags named with a protein.
